In publication PMC8319910:
No constants are given. Whether binding was seen depends on the method and setting. In cells and extracts the contact can be indirect. Some entries that bind do so weakly or less than the wild type.

By UniProt entry, the sequences of proteins in these tests, tags left out. Where a name states a change or a piece, a line headed by the entry shows the natural chain unless it says otherwise.
UniProt P05556: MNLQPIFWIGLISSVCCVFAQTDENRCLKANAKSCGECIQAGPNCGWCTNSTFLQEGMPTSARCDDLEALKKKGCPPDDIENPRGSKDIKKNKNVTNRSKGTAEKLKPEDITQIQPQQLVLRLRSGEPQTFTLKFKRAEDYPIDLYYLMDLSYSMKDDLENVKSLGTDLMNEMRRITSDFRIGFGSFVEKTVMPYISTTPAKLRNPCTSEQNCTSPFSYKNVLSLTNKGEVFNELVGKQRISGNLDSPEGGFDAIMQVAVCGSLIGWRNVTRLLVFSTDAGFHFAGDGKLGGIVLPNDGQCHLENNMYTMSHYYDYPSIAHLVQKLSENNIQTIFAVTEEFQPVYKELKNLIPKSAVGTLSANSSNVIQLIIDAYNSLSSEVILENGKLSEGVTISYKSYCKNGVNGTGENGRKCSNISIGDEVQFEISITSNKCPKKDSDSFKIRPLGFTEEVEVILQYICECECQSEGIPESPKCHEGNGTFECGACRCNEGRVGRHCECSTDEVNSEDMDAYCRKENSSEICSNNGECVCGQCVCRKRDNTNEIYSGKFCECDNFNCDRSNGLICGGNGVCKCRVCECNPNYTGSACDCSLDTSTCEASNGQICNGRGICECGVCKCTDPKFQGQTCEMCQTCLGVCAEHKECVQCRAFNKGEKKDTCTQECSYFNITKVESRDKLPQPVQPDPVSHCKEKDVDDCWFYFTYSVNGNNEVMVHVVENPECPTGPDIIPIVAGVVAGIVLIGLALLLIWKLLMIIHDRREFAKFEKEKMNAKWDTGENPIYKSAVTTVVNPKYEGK

Target: T1, Neuropilin-2 (human (endogenous in BxPC-3)) (UniProt O60462)
T1 sequence: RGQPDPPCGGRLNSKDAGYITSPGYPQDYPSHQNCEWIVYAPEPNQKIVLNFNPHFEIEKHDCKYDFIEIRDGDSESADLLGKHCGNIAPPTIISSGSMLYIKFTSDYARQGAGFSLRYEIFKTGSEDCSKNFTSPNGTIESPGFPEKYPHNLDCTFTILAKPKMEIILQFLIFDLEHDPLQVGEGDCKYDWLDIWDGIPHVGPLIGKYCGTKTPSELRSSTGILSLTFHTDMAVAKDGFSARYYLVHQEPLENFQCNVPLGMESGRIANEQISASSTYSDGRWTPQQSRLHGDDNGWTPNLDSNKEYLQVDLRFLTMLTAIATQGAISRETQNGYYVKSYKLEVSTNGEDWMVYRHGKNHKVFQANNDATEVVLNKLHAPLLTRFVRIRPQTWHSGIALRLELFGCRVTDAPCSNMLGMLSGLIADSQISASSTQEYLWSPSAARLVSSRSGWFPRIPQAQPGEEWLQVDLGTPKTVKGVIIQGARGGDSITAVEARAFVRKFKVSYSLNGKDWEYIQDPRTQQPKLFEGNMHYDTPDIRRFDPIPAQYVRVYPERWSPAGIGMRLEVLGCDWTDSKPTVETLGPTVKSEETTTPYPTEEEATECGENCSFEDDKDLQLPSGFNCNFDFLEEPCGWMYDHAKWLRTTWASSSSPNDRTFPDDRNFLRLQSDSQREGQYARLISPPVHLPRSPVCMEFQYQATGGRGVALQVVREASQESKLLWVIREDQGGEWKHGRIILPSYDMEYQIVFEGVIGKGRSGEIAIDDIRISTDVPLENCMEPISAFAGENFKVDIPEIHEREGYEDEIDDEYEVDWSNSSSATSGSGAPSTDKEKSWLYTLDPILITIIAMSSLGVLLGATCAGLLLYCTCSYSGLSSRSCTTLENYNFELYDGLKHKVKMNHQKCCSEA
Test: co-IP; BxPC-3 cell lysate; total protein incubated with 1 μg NRP2 antibody and 10 μL protein A/G beads overnight at 4°C, blot with anti-integrinβ1; cells pre-incubated with PBS (-) or N2E4 for 48 h

integrinβ1 (from UniProt P05556 21-798) (receptor)
binding: binds
